Reference: article PMC8338941, “Puf6 primes 60S pre-ribosome nuclear export at low temperature”

By UniProt entry, the sequences of proteins in these tests, tags left out.
UniProt Q04373: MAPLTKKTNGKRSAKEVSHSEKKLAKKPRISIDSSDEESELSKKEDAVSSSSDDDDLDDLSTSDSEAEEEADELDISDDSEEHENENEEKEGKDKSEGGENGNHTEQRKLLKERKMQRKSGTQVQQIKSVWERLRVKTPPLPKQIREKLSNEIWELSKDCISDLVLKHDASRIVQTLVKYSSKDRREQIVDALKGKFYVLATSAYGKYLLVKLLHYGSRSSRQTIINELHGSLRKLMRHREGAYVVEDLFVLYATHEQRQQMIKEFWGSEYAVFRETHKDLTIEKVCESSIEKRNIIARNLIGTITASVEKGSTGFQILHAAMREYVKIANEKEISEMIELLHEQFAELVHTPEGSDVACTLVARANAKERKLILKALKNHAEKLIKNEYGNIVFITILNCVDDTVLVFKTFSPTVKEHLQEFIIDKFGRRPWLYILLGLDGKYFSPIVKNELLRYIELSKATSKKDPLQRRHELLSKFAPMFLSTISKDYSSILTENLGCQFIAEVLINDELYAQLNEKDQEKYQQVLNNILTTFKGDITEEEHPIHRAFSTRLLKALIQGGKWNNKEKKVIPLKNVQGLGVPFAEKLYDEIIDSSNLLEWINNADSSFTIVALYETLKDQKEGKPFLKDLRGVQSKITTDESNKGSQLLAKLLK
UniProt P34241: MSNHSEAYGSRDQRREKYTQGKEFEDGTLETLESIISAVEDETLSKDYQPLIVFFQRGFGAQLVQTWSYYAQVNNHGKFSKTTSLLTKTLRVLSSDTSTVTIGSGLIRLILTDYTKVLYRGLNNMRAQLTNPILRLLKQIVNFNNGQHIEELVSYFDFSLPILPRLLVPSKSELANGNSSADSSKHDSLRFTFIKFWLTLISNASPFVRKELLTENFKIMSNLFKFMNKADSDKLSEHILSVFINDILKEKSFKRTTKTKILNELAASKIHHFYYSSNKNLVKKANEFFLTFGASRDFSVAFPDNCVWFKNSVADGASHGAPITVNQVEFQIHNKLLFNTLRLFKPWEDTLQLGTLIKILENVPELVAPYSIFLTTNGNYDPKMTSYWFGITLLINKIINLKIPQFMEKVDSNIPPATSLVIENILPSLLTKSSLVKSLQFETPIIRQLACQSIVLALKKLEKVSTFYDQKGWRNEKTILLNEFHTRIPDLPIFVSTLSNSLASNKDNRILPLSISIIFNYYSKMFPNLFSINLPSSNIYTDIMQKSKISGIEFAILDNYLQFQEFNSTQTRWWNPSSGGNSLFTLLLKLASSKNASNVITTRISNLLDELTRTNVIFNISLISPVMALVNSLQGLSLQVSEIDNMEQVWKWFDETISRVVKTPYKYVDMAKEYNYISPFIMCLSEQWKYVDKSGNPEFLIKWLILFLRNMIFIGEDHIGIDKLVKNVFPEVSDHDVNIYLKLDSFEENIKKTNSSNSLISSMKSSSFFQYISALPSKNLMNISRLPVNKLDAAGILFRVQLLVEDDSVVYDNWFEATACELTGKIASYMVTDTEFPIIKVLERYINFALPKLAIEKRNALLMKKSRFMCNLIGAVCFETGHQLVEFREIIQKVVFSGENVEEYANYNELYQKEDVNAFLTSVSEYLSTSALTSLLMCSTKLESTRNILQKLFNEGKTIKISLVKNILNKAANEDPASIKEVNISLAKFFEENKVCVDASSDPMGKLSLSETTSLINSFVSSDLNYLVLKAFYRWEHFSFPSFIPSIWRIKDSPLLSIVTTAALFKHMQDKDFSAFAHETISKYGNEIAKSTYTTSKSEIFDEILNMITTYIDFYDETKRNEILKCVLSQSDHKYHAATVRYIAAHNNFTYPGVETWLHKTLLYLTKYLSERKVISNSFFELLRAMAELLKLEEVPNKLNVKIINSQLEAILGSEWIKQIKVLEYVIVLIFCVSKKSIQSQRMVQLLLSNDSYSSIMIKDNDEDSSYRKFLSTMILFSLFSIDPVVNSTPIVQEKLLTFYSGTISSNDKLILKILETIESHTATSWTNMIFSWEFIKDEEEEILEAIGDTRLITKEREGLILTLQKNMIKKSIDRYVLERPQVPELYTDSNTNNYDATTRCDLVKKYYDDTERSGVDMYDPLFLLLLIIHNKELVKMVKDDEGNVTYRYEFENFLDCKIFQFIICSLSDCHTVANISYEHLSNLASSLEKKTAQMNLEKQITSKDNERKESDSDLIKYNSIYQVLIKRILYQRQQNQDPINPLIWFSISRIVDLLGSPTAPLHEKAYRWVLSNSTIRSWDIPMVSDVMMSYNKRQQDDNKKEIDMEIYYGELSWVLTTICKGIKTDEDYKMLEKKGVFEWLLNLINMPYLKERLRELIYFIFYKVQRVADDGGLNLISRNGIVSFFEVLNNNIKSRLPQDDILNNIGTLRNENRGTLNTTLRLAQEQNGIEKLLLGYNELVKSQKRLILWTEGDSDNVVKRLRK
UniProt Q05022: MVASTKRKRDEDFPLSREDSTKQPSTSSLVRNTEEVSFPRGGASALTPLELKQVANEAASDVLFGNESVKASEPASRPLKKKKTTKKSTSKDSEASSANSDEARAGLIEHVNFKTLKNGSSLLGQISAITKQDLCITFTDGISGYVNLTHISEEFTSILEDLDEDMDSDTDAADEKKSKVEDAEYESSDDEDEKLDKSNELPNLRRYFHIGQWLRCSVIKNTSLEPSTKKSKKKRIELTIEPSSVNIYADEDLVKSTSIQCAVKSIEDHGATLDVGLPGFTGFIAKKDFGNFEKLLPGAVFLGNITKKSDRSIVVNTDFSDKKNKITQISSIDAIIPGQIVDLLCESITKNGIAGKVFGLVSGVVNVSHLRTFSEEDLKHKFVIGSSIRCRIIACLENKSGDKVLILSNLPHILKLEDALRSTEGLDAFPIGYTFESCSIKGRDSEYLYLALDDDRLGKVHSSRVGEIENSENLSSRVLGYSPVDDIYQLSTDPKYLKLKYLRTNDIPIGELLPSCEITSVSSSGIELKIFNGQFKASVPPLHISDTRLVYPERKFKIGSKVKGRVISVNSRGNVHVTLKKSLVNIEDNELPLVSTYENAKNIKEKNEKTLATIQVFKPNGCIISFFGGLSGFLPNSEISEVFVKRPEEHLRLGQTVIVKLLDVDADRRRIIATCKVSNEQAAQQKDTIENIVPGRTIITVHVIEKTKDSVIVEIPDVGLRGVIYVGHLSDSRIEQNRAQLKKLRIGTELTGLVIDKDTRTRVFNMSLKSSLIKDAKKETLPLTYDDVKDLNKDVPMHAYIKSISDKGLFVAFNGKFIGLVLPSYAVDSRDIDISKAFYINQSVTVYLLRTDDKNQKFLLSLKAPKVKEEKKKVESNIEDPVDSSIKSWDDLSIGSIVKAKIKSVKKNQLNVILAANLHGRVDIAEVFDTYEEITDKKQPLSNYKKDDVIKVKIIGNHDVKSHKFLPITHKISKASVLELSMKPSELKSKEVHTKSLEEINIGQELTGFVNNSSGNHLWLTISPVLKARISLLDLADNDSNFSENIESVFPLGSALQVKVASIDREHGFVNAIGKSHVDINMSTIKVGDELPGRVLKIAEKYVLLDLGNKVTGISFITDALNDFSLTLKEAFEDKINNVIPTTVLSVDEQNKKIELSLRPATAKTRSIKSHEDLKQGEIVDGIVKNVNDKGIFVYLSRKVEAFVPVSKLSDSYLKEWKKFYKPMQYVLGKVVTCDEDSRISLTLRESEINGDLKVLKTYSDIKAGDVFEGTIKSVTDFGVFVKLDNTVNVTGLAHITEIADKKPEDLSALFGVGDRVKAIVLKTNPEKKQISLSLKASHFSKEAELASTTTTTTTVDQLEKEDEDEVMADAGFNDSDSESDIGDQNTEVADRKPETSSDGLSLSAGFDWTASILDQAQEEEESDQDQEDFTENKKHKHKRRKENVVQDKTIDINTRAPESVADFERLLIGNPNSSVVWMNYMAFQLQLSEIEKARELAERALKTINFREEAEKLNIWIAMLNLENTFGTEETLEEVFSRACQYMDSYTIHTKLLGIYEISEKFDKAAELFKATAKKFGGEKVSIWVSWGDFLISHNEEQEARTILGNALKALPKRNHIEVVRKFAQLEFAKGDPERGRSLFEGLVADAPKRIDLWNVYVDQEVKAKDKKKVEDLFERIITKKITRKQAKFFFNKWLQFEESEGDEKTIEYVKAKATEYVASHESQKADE

Target: Puf6-TAP (S. cerevisiae) (UniProt Q04373)
Test: affinity purification with mass spectrometry; Puf6-TAP particle separated on a NuPAGE 4-12% Bis-Tris gradient gel, Silver staining; indicated proteins identified by mass spectrometry

| Molecule | binding |
| --- | --- |
| Rrp1 (protein, UniProt P35178 1-278) METSNFVKQLSSNNRKTRVNALEALKKYLTAKQFKENKQIEFNKLWKGLYYAMWFSDRPRPQQRLANELGELHGLYFDPKDNSTADELTTNDKAFIKFSRGFWKVMCFEWFNIDRYRLDKYLLLIRRVLFSQLKYLQSRNWDKKLVDEYIKKVLRWLPLSGSPKVYTGIPIHIVDILLDEWERLLKDGDEDDEDEENKEEEMRKIAESAKKTPLADVIAIFQDIVADYNNSKVLREKIKEDLFSDTRLVSWDILEGETQHNDSSNESEEEEEEEWKGF | binds |
| Mak11 (protein, UniProt P20484 1-414) MSAIGDKNQFRIIVGSYEHNILCLSLDIPNQKENDAAKTPHFMPIFHFQAHSLSIKCLAVSRRYLVSGSNDEHIRIYDLQKRKELGTLLSHQGSITALQFSHPASSSEDAAVSKGSKNSKWLLSASEDHKIMVWRVKDWETVGTLKGHTARVNDVDIHPTNRIAISVSDDHSIRLWNLMTLRNAAVLKLRKYNTNGTCVRWLGAKGDYFAVGLRDRVLIYETGSAKVFKEIVFQRKTLMHIETHILPFDNKEYLSVGISDGNVHFYPCEELFEKVEENEKQEDDDDKEDISPAFSLLGHTNRIKDFKFYTNEFGTYLVTIGSDGKIVVWDMSTKEQVAVYDCGERLNCLTLCDESIEKYNTMKKRDAETADIGDQSEVESDTEELKKIMFGEKKKLNKKKRKQLKKSKVSVELE | binds |
| Noc1 (protein, UniProt Q12176 1-1025) MSENNGNPLDLSSLRNKISSKLRDNNSKKAKKTHKGKDVKASSNSKKVNEDIRREALALGASEEDLKLIQGLSDDDDAKSEQEFDAVADEDADDKGFKNDLQNFMKNVGFDQHKLEDVDDDDIEEESTSSKESKIPAQEKEHAQSNIASSTIEKTSQESIDNGSEQEENTVEEANLSSDQEPESESAEKEKKEEKDGGLITQTTIISSDKLIIPYDKPWYEIPLDPQVGQNDDVEELSKEQIEKLFERGKQTLEADNQTYYEEFTKDSSQAKFMSQILSDGTLNDKISAVTLLIQDSPLHNTKSLETLVSYCGKKSRNSALQSLNALKDLFLNGLLPNRKLRYFKNQPGLSMMLNKKTLAIFYFEDYLKKLFFRVLEVLEVLSHDPIIHVRLQILNHVFDLLTNQPEQEFNLLRLGVNKIGDIDSKVSSKASYLLLKLEQAHPNMKSIVIDAIVDIALRPNADYHTTYYSVITLNQTILKRSEDSVANKLVKTYFTLFEKFLINTDKDNTNGVVKSNSKSYEEKRKKNFKKGKHGGKSVKIEKTENEVLDEKNSKLFSALLTGINRAFPFAQIPASVYEVHMETLFKITHSSNFNTSIQALVLINQVTVKAKLNSDRYYRTLYESLFDPRLVNSSKQGIYLNLLYKSLKQDALNVERVEAFVKRILQVCSHWLNVGTITGFFFLLIQLAKTVPQIKNLLTNTPVDYEYESDAEEEQGDKDIKRKEYDGRKRDPKFANAEKSSLWEINNFINHFHPTVKTYANAYVTGETEQIAKPDLGLFTLSHFLDRFVYRSAKQTNTARGTSIMQPLFSGSRVNDSVLVKASDIMHDQGPVNTEDWLTKKVEDIKPEDKFFYQYFTTKKTADGKGKKSNKASNFDSDDEMDENEIWSALVKSRPDVEDDSDDSELDFAEDDFSDSTSDDEPKLDAIDDEDAKSEGSQESDQEEGLDEDIFYSFDGEQDNSDKKRSFAESSEEDESSEEEKEEEENKEVSAKRAKKKQRKNMLKSLPVFASADDYAQYLDQDSD | binds |

Next, values leading:

| binding | Molecule |
| --- | --- |
| binds | Urb1 (from UniProt P34241 1-1764) |
| binds | Rrp5 (from UniProt Q05022 1-1729) |

These are yes or no findings as the source states them, for the method shown. In cells and extracts the contact can be indirect. These calls come from enrichment with a bait or labelling near it, and not all partners need be listed.
